Experimental data: the supplement of paper PMC6331611
± gives the standard deviation of the averaged measurements. Over roughly 1,600 compounds, “normalized intracellular growth (luminescence, IQM-normalized) in RAW264.7 macrophages” has its median near 1; the lowest 2% begin near 0.43. The list shows a part of the results.

Tested on: Salmonella enterica serovar Typhimurium SL1344
Experiment: normalized intracellular growth (luminescence, IQM-normalized) in RAW264.7 macrophages (fraction of plate interquartile mean); higher = more bacterial growth (less inhibition)
Details: 10 µM

| Compound | normalized intracellular growth (time point: T3 (3 h)) | normalized intracellular growth (time point: Tfinal (~6 h)) |
| --- | --- | --- |
| CC(=O)Nc1ccc(S(=O)(=O)c2ccc(NC(C)=O)cc2)cc1 | 1.01 ± 0.04 | 0.912 ± 0.062 |
| O=C1O[C@H]([C@@H](O)CO)C(O)=C1O | 1.01 ± 0.061 | 1.05 ± 0.094 |
| Clc1ccc(C(c2ccccc2Cl)C(Cl)Cl)cc1 (stereo not given) | 0.967 ± 0.039 | 1.26 ± 0.14 |
| C[N+](C)(C)C[C@H](O)CC(=O)[O-] | 1.022 ± 0.0093 | 1.25 ± 0.13 |
| OC(CCN1CCCC1)(c1ccccc1)C1CCCCC1 (stereo not given) | 1.05 ± 0.051 | 1.02 ± 0.052 |
| CC(C)NCC(O)COc1cccc2[nH]ccc12 (stereo not given) | 0.744 ± 0.1 | 0.9 ± 0.097 |
| CC(CN(C)C)CN1c2ccccc2CCc2ccccc21 (stereo not given) | 0.997 ± 0.058 | 1.17 ± 0.076 |
| CCCCOc1ccc(C(=O)CCN2CCCCC2)cc1 | 1.02 ± 0.094 | 1.17 ± 0.097 |
| CC(C)(C)CC(C)(C)c1ccc(OCCOCC[N+](C)(C)Cc2ccccc2)cc1 | 0.972 ± 0.036 | 0.901 ± 0.032 |
| Cn1nnc2c(C(N)=O)ncn2c1=O | 1.03 ± 0.017 | 1.03 ± 0.045 |
| CC(C)(C)NC(=O)[C@H]1CC[C@H]2[C@@H]3CC[C@H]4NC(=O)C=C[C@]4(C)[C@H]3CC[C@]12C | 1.15 ± 0.086 | 1.36 ± 0.065 |
| C=C1CC[C@H](O)C/C1=C/C=C1\CCC[C@]2(C)[C@@H]([C@H](C)/C=C/[C@H](C)C(C)C)CC[C@@H]12 | 1.04 ± 0.059 | 1.2 ± 0.086 |
| Nc1nc(N)c2nc(-c3ccccc3)c(N)nc2n1 | 0.838 ± 0.039 | 1.07 ± 0.03 |
| Cc1c(Nc2ncccc2C(=O)O)cccc1C(F)(F)F | 1.02 ± 0.056 | 1.07 ± 0.052 |
| CC[C@H](c1ccc(O)cc1)[C@@H](CC)c1ccc(O)cc1 | 0.997 ± 0.051 | 1.03 ± 0.19 |
| C[C@]12CCC(=O)C=C1CC[C@@H]1[C@@H]2[C@@H](O)C[C@@]2(C)[C@H]1CC[C@]2(O)C(=O)COP(=O)(O)O | 0.9812 ± 0.0046 | 0.999 ± 0.047 |
| CC(=O)OCC(=O)[C@@]1(O)CC[C@H]2[C@@H]3CCC4=CC(=O)C=C[C@]4(C)[C@H]3[C@@H](O)C[C@@]21C | 0.822 ± 0.19 | 0.823 ± 0.06 |
| CC1(C)O[C@@H]2C[C@H]3[C@@H]4C[C@H](F)C5=CC(=O)C=C[C@]5(C)[C@H]4[C@@H](O)C[C@]3(C)[C@]2(C(=O)CO)O1 | 1.028 ± 0.0072 | 0.938 ± 0.02 |
| CN(Cc1cc(Br)cc(Br)c1N)C1CCCCC1 | 1 ± 0.011 | 0.979 ± 0.0081 |
| C[C@H](CS)C(=O)N1CCC[C@H]1C(=O)O | 1.09 ± 0.021 | 1.07 ± 0.036 |
| NCCc1ccc(O)c(O)c1 | 1.02 ± 0.045 | 1 ± 0.084 |
| COc1ccc(-c2ccc3cc(C(=O)O)ccc3c2)cc1C12CC3CC(CC(C3)C1)C2 | 1.03 ± 0.045 | 0.923 ± 0.41 |
| CCN1CCCC1CNC(=O)c1cc(S(N)(=O)=O)ccc1OC (stereo not given) | 0.968 ± 0.025 | 1.02 ± 0.1 |

| Compound | normalized intracellular growth (time point: T3 (3 h)) | normalized intracellular growth (time point: Tfinal (~6 h)) |
| --- | --- | --- |
| CCCCc1oc2ccccc2c1C(=O)c1cc(I)c(OCCN(CC)CC)c(I)c1 | 1 ± 0.048 | 1.01 ± 0.07 |
| Cc1cccc(N(C)C(=S)Oc2ccc3ccccc3c2)c1 | 0.8168 ± 0.0041 | 0.932 ± 0.087 |
| N[C@@H](COP(=O)(O)O)C(=O)O | 1.01 ± 0.071 | 0.987 ± 0.095 |
| O=c1[nH]c(=O)n([C@H]2C[C@H](O)[C@@H](CO)O2)cc1I | 1.005 ± 0.0041 | 1.01 ± 0.2 |
| CC1(C)O[C@@H]2C[C@H]3[C@@H]4C[C@H](F)C5=CC(=O)CC[C@]5(C)[C@H]4[C@@H](O)C[C@]3(C)[C@]2(C(=O)CO)O1 | 1 ± 0.082 | 1 ± 0.024 |
| CCC(=O)OCC(=O)[C@@]1(OC(=O)CC)[C@@H](C)C[C@H]2[C@@H]3CCC4=CC(=O)C=C[C@]4(C)[C@@]3(F)[C@@H](O)C[C@@]21C | 1.02 ± 0.042 | 0.958 ± 0.024 |
| NNC(=O)c1ccncc1 | 1.01 ± 0.018 | 1.01 ± 0.098 |
| CC/C=C\C/C=C\C/C=C\C/C=C\C/C=C\C/C=C\CCC(=O)O | 0.977 ± 0.069 | 1.02 ± 0.09 |
| CCCCC(CC)COc1ccc(-c2nc(-c3ccc(OC)cc3)nc(-c3ccc(OCC(CC)CCCC)cc3O)n2)c(O)c1 (stereo not given) | 1.02 ± 0.065 | 1.1 ± 0.17 |
| CN1CCCN=C1/C=C/c1cccs1 | 1.05 ± 0.043 | 1.13 ± 0.093 |
| CCC[C@@H]1C[C@@H](C(=O)N[C@@H]([C@H]2O[C@H](SC)[C@H](O)[C@@H](O)[C@H]2O)[C@@H](C)O)N(C)C1 | 1.07 ± 0.045 | 1.02 ± 0.042 |
| O=c1cc[nH]c(=O)[nH]1 | 0.935 ± 0.09 | 0.9 ± 0.052 |
| Nc1ccc(S(=O)(=O)O)cc1.Nc1ccc(S(=O)(=O)O)cc1.[Zn] | 1.01 ± 0.047 | 1.15 ± 0.099 |
| C#C[C@]1(O)CC[C@H]2[C@@H]3CCC4=Cc5oncc5C[C@]4(C)[C@H]3CC[C@@]21C | 0.982 ± 0.01 | 0.976 ± 0.073 |
| CCOc1ccc(Cc2nccc3cc(OCC)c(OCC)cc23)cc1OCC | 0.925 ± 0.09 | 0.43 ± 0.11 |
| O=C(Nc1ccc([N+](=O)[O-])cc1Cl)c1cc(Cl)ccc1O | 1.17 ± 0.064 | 0.514 ± 0.088 |
| CN1C(C(=O)Nc2ccccn2)=C(O)c2sc(Cl)cc2S1(=O)=O | 1.02 ± 0.021 | 0.807 ± 0.14 |
| CC12CC3CC(C)(C1)CC(N)(C3)C2 | 0.987 ± 0.018 | 1.12 ± 0.23 |
| Nc1ccc(S(=O)(=O)Nc2nccs2)cc1 | 1.2 ± 0.14 | 1.26 ± 0.098 |
| Cc1ccc(-c2cc(C(F)(F)F)nn2-c2ccc(S(N)(=O)=O)cc2)cc1 | 1.02 ± 0.1 | 0.848 ± 0.12 |
| CC(C)[N+]1(C)[C@@H]2CC[C@H]1C[C@@H](OC(=O)C(CO)c1ccccc1)C2 (stereo not given in full) | 1 ± 0.096 | 0.779 ± 0.087 |
| CC[C@H]1OC(=O)[C@H](C)[C@@H](O[C@H]2C[C@@](C)(OC)[C@@H](O)[C@H](C)O2)[C@H](C)[C@@H](O[C@@H]2O[C@H](C)C[C@H](N(C)C)[C@H]2O)[C@](C)(O)C[C@@H](C)CN(C)[C@H](C)[C@@H](O)[C@]1(C)O | 1.05 ± 0.039 | 0.00697 ± 0.00054 |

Grouped by structure, the entries above containing a CF3 group.

| Compound | normalized intracellular growth (time point: T3 (3 h)) | normalized intracellular growth (time point: Tfinal (~6 h)) |
| --- | --- | --- |
| Cc1c(Nc2ncccc2C(=O)O)cccc1C(F)(F)F | 1.02 ± 0.056 | 1.07 ± 0.052 |
| Cc1ccc(-c2cc(C(F)(F)F)nn2-c2ccc(S(N)(=O)=O)cc2)cc1 | 1.02 ± 0.1 | 0.848 ± 0.12 |
